The values below come from PubChem BioAssay AID2685 (National Center for Advancing Translational Sciences (NCATS), 2010).

Some of the results follow. Shown are side measurements of this screen, not its main read-out; they come without a call. Compounds called inactive in the main read-out are mostly missing here. Potencies come from curve fits of mixed quality, noted in brackets.

The nature of the test: qHTS Assay for Lipid Storage Modulators in Drosophila S3 Cells.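 For cell number change: cells counted by Cell Tracker Red CMTPX staining in the red channel.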 Particulars: BODIPY lipid droplet fluorescence, 18-24 h; for cell number change: measured here: cell count max response, cells fed with added oleic acid. The method in brief: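 Drosophila S3 cells loaded with oleic acid (400 uM, as added) and compounds at several concentrations; lipid droplets imaged by 488-nm laser-scanning cytometry, 500–530 nm intensity and object ratio to cell channel. Percent activity normalized to 20 uM Triacsin C.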
(In general: qHTS replaces the single test concentration by a dilution series.)

The mark [1] stands for this setting: measured here: cell number channel AC50, cells fed with added oleic acid.
[2] abbreviates: measured here: lipid fluorescence (Fed channel) AC50, cells fed with added oleic acid.

Take `O=C(c1ccccc1)c1nnc(-c2ccccc2F)o1`: the cell number change was -15.8%. The AC50 – broadly, the midpoint of the concentration-response curve, whichever way the signal moves – under setting [1] was 0.58 µM [falling, full curve, poor fit].
`COCCn1c(SCC(=O)c2[nH]c(C)c(C(C)=O)c2C)nc2ccccc21`: the cell number change came out at 13.4%. The AC50 under setting [2] was 0.731 µM [rising, single point].
In the case of `COc1ccccc1OCCNC(=O)c1ccccc1OCc1c(C)noc1C`, the cell number change was -0.834%.
For the molecule `O=C(Nc1ccc(F)cc1)c1nc(S(=O)(=O)Cc2ccccc2)ncc1Cl`, the AC50 under setting [1] is 6.51 µM [falling, single point] and the AC50 under setting [2] is 29.1 µM [falling, partial curve, poor fit].
For `COc1ccc(OCC(O)CON2C(=O)c3ccccc3C2=O)cc1` (stereo not drawn), the cell number change came to 12.1%. Moreover, under setting [2], the half-maximal activity concentration (AC50) is 0.82 µM [falling, full curve, poor fit].
Turning to `CC(NC(=O)c1ccc(F)cc1)C(c1cccs1)N1CCN(C)CC1` (stereo not drawn), the cell number change is -25.4%. The AC50 under setting [2] was 1.3 µM [falling, full curve, poor fit].
As for `COc1cc(/C=N/NC(=O)c2sc(N)c(C#N)c2C)cc(Br)c1O`, the cell number change is -21.4%. Under setting [2], the AC50 is 0.92 µM [falling, full curve].
Regarding `CNC(=O)c1ccsc1NC(=O)c1ccccc1`, the cell number change was determined as 0.476%. Besides, the AC50 under setting [1] was 2.59 µM [rising, partial curve, poor fit]. The AC50 under setting [2] is 1.3 µM [rising, full curve].
With `CCN(CC)S(=O)(=O)c1ccc(O)c(NC(=O)CN2CCc3ccccc3C2)c1`, the AC50 under setting [2] was 2.31 µM [rising, partial curve, poor fit].
Turning to `O=C(Nc1ccc2c(c1)CCCN2C(=O)c1ccccc1)c1ccccc1`, the AC50 under setting [2] was 1.84 µM [falling, partial curve].
Turning to `CCCS(=O)(=O)N1CCC(C(=O)NCc2cccnc2)CC1`, the cell number change is -91%. Also, the AC50 under setting [1] was 32.6 µM [falling, partial curve]. The AC50 under setting [2] is 0.651 µM [falling, single point].
Take `O=C(NNS(=O)(=O)c1ccccc1)c1cccc(F)c1`: the cell number change was -15.7%.
As for `O=C(CCCOc1ccccc1)Nc1ccc(S(=O)(=O)N2CCOCC2)cc1`, the cell number change was -6.81%. Besides, under setting [1], the AC50 is 0.0366 µM [rising, full curve, poor fit].
For the molecule `Cc1ccc(/C=N/Nc2cc(C)nc(NCc3ccccc3)n2)cc1`, the cell number change was -66.3%. Besides, the AC50 under setting [1] is 29.1 µM [falling, single point]. For the same molecule, under setting [2], the AC50 was 29.1 µM [falling, single point].
Consider `Cc1ccc(NC(=O)CC2=NC(=O)C(CC(=O)Nc3ccccc3C)S2)cc1` (stereo not drawn), for which the cell number change amounted to 9.83%. Besides, under setting [1], the AC50 is 6.51 µM [rising, single point].
On to `O=C(NCc1ccco1)C(c1cccs1)N(C(=O)Cc1cccs1)c1ccccc1` (stereo not drawn), for which the cell number change is 2.36%.
Regarding `COc1ccc([N+](=O)[O-])cc1NC(=O)CSc1ncccn1`, the AC50 runs as follows: under setting [1], 0.116 µM [rising, full curve, poor fit]; under setting [2], 20.6 µM [rising, partial curve].
In the case of `CS(=O)(=O)c1ccc(Cl)c(NC(=O)CCN2C(=O)C3CC=CCC3C2=O)c1` (stereo not drawn), the cell number change stood at 11.4%. Moreover, the AC50 under setting [1] was 0.731 µM [rising, single point].
On to `OC(CNCc1ccccc1F)(c1ccc(F)cc1)c1ccc(F)cc1`, for which the cell number change was -48.9%. Moreover, under setting [1], the AC50 is 0.00517 µM [falling, full curve]. For the same molecule, the AC50 under setting [2] was 0.0231 µM [falling, full curve].
For the molecule `Cc1cc(C(=O)NCc2ccc(F)cc2)c2ccccc2n1`, the cell number change is 1.9%. The AC50 under setting [2] is 6.51 µM [falling, single point].
On to `CC(C)(C)n1nnnc1C(c1ccc(Cl)cc1)N(Cc1cccnc1)Cc1ccco1` (stereo not drawn), for which the cell number change was -25.4%. The AC50 under setting [2] was 29.1 µM [falling, single point].
Take `CCCCC(=O)Nc1cccc(NC(=O)c2cccnc2Cl)c1`: the AC50 under setting [2] is 4.61 µM [falling, partial curve, poor fit].
As for `Cc1ccc(N2CC(C(=O)OCC(=O)Nc3ccccc3F)CC2=O)cc1` (stereo not drawn), the cell number change was -114%. Moreover, the AC50 under setting [1] is 20.6 µM [falling, partial curve]. Besides, the half-maximal activity concentration (AC50) under setting [2] was 23.1 µM [falling, partial curve].
On to `COCCN(C(=O)COC(=O)Cc1cccc2ccccc12)c1c(N)n(Cc2ccccc2)c(=O)[nH]c1=O`, for which the cell number change stood at 11.5%.
Take `CN(O)/C=C/C(=O)c1ccc(Br)cc1`: the cell number change was -19%. Besides, the AC50 under setting [2] is 0.116 µM [falling, full curve].
Regarding `COc1ccc(Oc2cnn(-c3ccccc3)c(=O)c2Br)cc1`, the cell number change stood at 1.23%.
Regarding `CNc1nc(-c2ccccc2)cc(C)c1S(C)(=O)=O`, the cell number change was -35.8%. Further, the AC50 under setting [1] was 7.31 µM [falling, partial curve, poor fit].
Regarding `O=C(CSc1nc2ccccc2c(=O)n1-c1ccc(F)cc1)Nc1ccc2c(c1)CCC2`, the cell number change was -30.9%. Under setting [1], the AC50 is 29.1 µM [falling, single point]. In addition, the AC50 under setting [2] is 29.1 µM [falling, single point].
With `Cc1cccc(-c2nc3ccccc3c(=O)n2NC(=O)/C=C/c2ccc([N+](=O)[O-])cc2)c1`, the cell number change is 23.3%. In addition, the AC50 under setting [2] is 11.6 µM [rising, partial curve, poor fit].
On to `O=[N+]([O-])c1nn(-c2ccc3c(c2)OCCO3)n(O)c1=NC1CCCCC1`, for which the cell number change is -11.8%. Also, the AC50 under setting [2] was 2.91 µM [rising, single point].
On to `CCCOc1ccc(/C(O)=C2\C(=O)C(=O)N(CCCOC)C23C(=O)N(C)c2ccccc23)cc1` (stereo not drawn), for which the cell number change came out at 24.7%. The AC50 under setting [1] is 0.82 µM [rising, full curve, poor fit]. Moreover, the concentration at half-maximal activity (AC50) under setting [2] was 29.1 µM [falling, single point].
`CCn1cc(C(=O)NC(=S)Nc2cccc(O)c2)cn1`: the cell number change was 61.9%. For the same molecule, the AC50 under setting [1] is 32.6 µM [rising, single point].
As for `CCOc1ccc2nc(NS(=O)(=O)Cc3ccccc3)sc2c1`, the cell number change was -3.07%. Moreover, under setting [2], the AC50 was 0.651 µM [rising, full curve].
For the molecule `CCc1nnc(NC(=O)c2ccc(S(=O)(=O)NC3CCCCC3)cc2)s1`, the cell number change came out at 93.5%.
On to `O=C(CCC1CCCCC1)Nc1ncn[nH]1`, for which the AC50 under setting [1] was 2.59 µM [rising, partial curve].
As for `CCNC(=S)N1CCN(c2nc(-c3ccc(F)cc3)cs2)CC1`, the cell number change is -29.8%. Besides, under setting [2], the AC50 was 6.51 µM [rising, single point].
Regarding `COc1cc(C2Nc3ccccc3C(=O)N2c2ccccc2OC)ccc1O` (stereo not drawn), the cell number change stood at 26.1%. Further, under setting [2], the AC50 is 1.64 µM [rising, partial curve].
For the molecule `COc1ccc(N2CCN(C(=O)CN(Cc3ccc(Cl)cc3)S(C)(=O)=O)CC2)cc1`, the cell number change turned out to be 0.145%. For the same molecule, under setting [2], the AC50 is 4.61 µM [rising, full curve, poor fit].
Regarding `CCCCNc1nc2c(c(=O)n(C)c(=O)n2C)n1Cc1cccc(OC)c1`, the cell number change was -47%. Under setting [1], the AC50 is 1.64 µM [falling, partial curve, poor fit]. The AC50 under setting [2] is 2.06 µM [falling, full curve].
On to `Cn1nnnc1SCSc1nnnn1C`, for which the cell number change is -41.3%. Under setting [1], the AC50 was 18.4 µM [falling, single point]. For the same molecule, the AC50 under setting [2] is 25.9 µM [falling, single point].
Consider `CS(=O)(=O)N1CCN(c2cccc(Cl)n2)CC1`, for which the cell number change is 10%. In addition, the AC50 under setting [1] was 0.231 µM [falling, full curve, poor fit].
Turning to `CCOC(=O)c1[nH]c(C)c(CCC(=O)O)c1C`, the cell number change amounted to 18.7%. Also, the AC50 under setting [2] is 5.8 µM [falling, single point].
`O=C1Cc2ccccc2C(c2c(Cl)cccc2Cl)N1` (stereo not drawn): the cell number change stood at 13.8%.
With `CCOc1ccc(NC(=O)CN(C)C(=O)c2cccnc2Sc2ccccc2Cl)cc1OCC`, under setting [1], the AC50 was 0.103 µM [falling, full curve, poor fit].
As for `CCCC1(CCC)C(=O)NC(=NCCc2ccc(OC)c(OC)c2)NC1=O`, the cell number change is 6.09%.
Consider `Nc1cc(N)nc(SCC(=O)N2CCN(S(=O)(=O)c3ccccc3)CC2)n1`, for which the cell number change is -6.46%. The AC50 under setting [2] was 0.82 µM [falling, full curve, poor fit].
As to `O=C(CN1C(=O)c2ccccc2C1=O)Nc1cccc(S(=O)(=O)Nc2ccccc2Cl)c1`, the cell number change was -14.3%. Moreover, the AC50 under setting [2] was 0.651 µM [falling, full curve, poor fit].
Turning to `Cc1ccc(C2(C)CC(C)(C)N(C(=O)CSc3nnc(C)s3)c3ccccc32)cc1` (stereo not drawn), the cell number change stood at 4.27%. Further, under setting [2], the AC50 is 1.03 µM [falling, single point].
For the molecule `Cc1ccccc1Nc1nc(N)nc(CSc2nc3ccccc3s2)n1`, the cell number change is -33.3%. For the same molecule, the AC50 under setting [1] is 0.731 µM [falling, partial curve, poor fit].
Regarding `Cc1ccc(CNC(=O)c2ccc(CNS(=O)(=O)c3ccc4c(c3)C(C)(C)C(=O)N4C)cc2)o1`, the cell number change worked out at 20.1%.
With `COc1ccc(/C=C(\NC(=O)c2ccc(C)cc2)C(=O)NCCCn2ccnc2)cc1OC`, the cell number change worked out at 1.28%. In addition, under setting [2], the AC50 was 5.17 µM [falling, single point].
In the case of `CCn1c(SCC(=O)NC2CC2)nnc1-c1ccccn1`, the cell number change came out at 1.47%.
For `Cc1ccsc1C(=O)OCC(=O)NCC1CCCO1` (stereo not drawn), the cell number change is -27.4%. Besides, the AC50 under setting [1] is 0.366 µM [rising, full curve]. In addition, under setting [2], the AC50 was 0.82 µM [rising, single point].
Regarding `NC(=O)c1oc2ccccc2c1NC(=O)C1CC(=O)N(c2ccccc2)C1` (stereo not drawn), the cell number change is 38.7%. Further, under setting [1], the AC50 is 23.1 µM [rising, single point].
On to `O=C(Nc1ccccc1)c1cccc(N2C(=O)C3C4C=CC(C5CC45)C3C2=O)c1` (stereo not drawn), for which, under setting [2], the AC50 was 29.1 µM [falling, single point].
With `CC(=O)Nc1ccc(-c2cn3cccnc3n2)cc1`, under setting [1], the AC50 was 3.66 µM [rising, single point].
For the molecule `Cc1noc(C)c1C(=O)OCC(=O)NCc1ccc(Cl)cc1`, the cell number change was -11.9%. For the same molecule, the AC50 under setting [1] is 0.517 µM [falling, full curve]. Besides, under setting [2], the AC50 was 6.51 µM [falling, single point].
Turning to `O=C(COc1coc(CN2CCN(c3ccccc3F)CC2)cc1=O)Nc1ccccc1`, the cell number change is 7.25%. The AC50 under setting [2] is 20.6 µM [rising, partial curve].
Regarding `Cc1oc(-c2ccc(Cl)cc2)nc1CN1CCCC(C(=O)N2CCN(C(=O)c3ccco3)CC2)C1` (stereo not drawn), the cell number change is -41.3%. Further, the AC50 under setting [1] was 13 µM [falling, partial curve, poor fit]. Further, under setting [2], the AC50 is 16.4 µM [falling, partial curve].
